Earlier results in patent US20260034116A1, “CANCER COMBINATION THERAPY INCLUDING A BCL-2 INHIBITOR” (RYVU THERAPEUTICS S.A., priority 2022, published 2026).
At least one compound was matched to its structure with a doubt left.

System: AML
Conditions: single agent in AML treatment; cited from earlier work

Question: For `CC1(C)CCC(CN2CCN(c3ccc(C(=O)NS(=O)(=O)c4ccc(NCC5CCOCC5)c([N+](=O)[O-])c4)c(Oc4cnc5[nH]ccc5c4)c3)CC2)=C(c2ccc(Cl)cc2)C1` [Ven, Venetoclax], which antileukemic activity is on record?
Answer: The antileukemic activity was “modest antileukemic activity”.
